According to patent US20230174975A1 (priority 2020, published 2023):
Some entries share one result that the patent states for a list of compounds.

Tested on: 229E
Assay type: cell-based, human 229E coronavirus

| Substance | time cells survive 229E infection |
| --- | --- |
| crN1: crRNA (guide) targeting N gene of human 229E coronavirus; not N1 of Table 9 (guide AGCCCAUUUGACUGUAGCCAUC; chemistry not given here) | at least 3 days |
| crN4: crRNA (guide) targeting N gene of human 229E coronavirus (guide UGACAAAUCCACCCGUUUGCCC; chemistry not given here) | at least 3 days |
| crN9: crRNA (guide) targeting N gene of human 229E coronavirus (guide UGCCUUCAUGAUGUCAUCCUGA; chemistry not given here) | at least 3 days |
| crN20: crRNA (guide) targeting N gene of human 229E coronavirus (guide ACUUCAUCAAUUAUGUCAGUUU; chemistry not given here) | at least 3 days |
| crR8: crRNA (guide) targeting RdRP of human 229E coronavirus (guide AAUCUUUAAUUGCAGCAUCACC; chemistry not given here) | at least 3 days |
| crR19: crRNA (guide) targeting RdRP of human 229E coronavirus; not R19 of Table 9 (guide CCAGCAGAAAUAAUACGGCUAG; chemistry not given here) | at least 3 days |
